# At least one compound was matched to its structure with a doubt left.
# Sequences of proteins named here, by UniProt entry; tags and fusion partners are left off. A change or cut given only in a name is not applied to a line headed by its entry.
# UniProt Q12791: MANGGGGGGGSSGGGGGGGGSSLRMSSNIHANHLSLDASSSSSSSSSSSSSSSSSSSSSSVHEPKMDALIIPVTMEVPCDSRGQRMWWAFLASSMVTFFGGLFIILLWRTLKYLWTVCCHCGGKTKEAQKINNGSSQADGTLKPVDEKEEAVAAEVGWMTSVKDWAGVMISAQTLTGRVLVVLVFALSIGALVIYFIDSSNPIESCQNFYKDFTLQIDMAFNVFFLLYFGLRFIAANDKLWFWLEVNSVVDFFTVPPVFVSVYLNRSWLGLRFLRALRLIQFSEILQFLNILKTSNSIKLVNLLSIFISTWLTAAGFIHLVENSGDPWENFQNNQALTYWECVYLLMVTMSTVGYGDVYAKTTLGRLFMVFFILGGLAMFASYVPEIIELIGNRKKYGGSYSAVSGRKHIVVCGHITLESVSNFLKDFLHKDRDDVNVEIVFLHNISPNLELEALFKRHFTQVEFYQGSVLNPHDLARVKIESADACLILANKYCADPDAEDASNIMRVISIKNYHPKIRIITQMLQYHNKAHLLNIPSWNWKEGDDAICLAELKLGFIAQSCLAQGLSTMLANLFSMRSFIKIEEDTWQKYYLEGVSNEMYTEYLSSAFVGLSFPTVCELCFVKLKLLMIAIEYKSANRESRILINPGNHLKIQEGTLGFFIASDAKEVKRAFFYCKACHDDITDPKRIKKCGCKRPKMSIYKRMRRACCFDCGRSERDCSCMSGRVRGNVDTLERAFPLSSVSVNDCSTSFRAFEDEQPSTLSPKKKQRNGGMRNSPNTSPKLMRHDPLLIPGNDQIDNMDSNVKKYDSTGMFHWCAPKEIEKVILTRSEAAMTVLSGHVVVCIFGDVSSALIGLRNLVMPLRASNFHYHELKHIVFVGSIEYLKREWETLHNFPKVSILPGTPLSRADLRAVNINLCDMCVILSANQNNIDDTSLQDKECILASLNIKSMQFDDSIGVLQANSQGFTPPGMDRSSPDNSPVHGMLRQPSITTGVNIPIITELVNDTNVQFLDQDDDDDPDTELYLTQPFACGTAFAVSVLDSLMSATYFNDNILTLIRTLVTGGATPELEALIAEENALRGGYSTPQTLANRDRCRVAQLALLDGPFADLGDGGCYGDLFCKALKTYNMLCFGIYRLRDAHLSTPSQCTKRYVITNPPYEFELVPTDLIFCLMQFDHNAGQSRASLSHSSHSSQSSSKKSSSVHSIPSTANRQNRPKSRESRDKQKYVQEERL
# UniProt Q16558: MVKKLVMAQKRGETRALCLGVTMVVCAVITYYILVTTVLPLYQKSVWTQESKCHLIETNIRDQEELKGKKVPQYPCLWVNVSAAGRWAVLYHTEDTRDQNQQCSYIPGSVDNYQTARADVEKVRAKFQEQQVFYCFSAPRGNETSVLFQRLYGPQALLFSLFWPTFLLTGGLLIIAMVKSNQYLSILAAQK
# What was measured:
# [1] = biological target: T1, BK channels (Homo sapiens, UniProt Q12791+Q16558); assay: Depolarization-induced steady-state whole cell outward BK currents, amphotericin B-perforated patch-clamp, freshly-isolated DSM cells; format: cell-based
# T1 construct: Human single DSM cells were enzymatically isolated as previously described; endogenous in cells; host or cells: freshly-isolated human detrusor smooth muscle (DSM) cells from open bladder surgery specimens
# Text: DSM single cell isolation: Human single DSM cells were enzymatically isolated as previously described. (Hristov K L, Chen M, Kellett W F, Rovner E S, and Petkov G V. Large-conductance voltage- and Ca2+-activated K+ channels regulate human detrusor smooth muscle function. Am J Physiol Cell Physiol 301: C903-912, 2011; Hristov K L, Parajuli S P, Soder R P, Cheng Q, Rovner E S, and Petkov G V. Suppression of human detrusor smooth muscle excitability and contractility via pharmacological activation of large conductance Ca2+-activated K+ channels. Am J Physiol Cell Physiol 302: C1632-1641, 2012; Parajuli S P, Hristov K L, Cheng Q P, Malysz J, Rovner E S, and Petkov G V. Functional link between muscarinic receptors and large-conductance Ca2+-activated K+ channels in freshly isolated human detrusor smooth muscle cells. Pflugers Arch 467: 665-675, 2015.) […]
# (§1) The current disclosure applied the amphotericin B-perforated whole cell patch-clamp technique to record transient BK currents (TBKCs), depolarization-induced steady-state whole cell BK currents, and the resting membrane potential (RMP) of human freshly-isolated DSM cells. TBKCs in DSM cells were recorded at the holding potential of −20 mV. […] Single BK channel activity was recorded from inside-out excised membrane patches using symmetrical K^+ (140 mM) solutions, at a holding potential of −60 mV (Vh=−60 mV). […]
# [2] = biological target: T1, BK channels; assay: Single BK channel recordings, inside-out excised membrane patches of DSM cells; format: biochemical; conditions: paxilline 1 μM, post treatment of patches; n=5, N=5; P<0.05
# Procedure: Patch-clamp electrophysiological experiments: Patch-clamp experiments were performed as previously described. […]
# as §1
# Solutions and drugs: Ca^2+-free dissection solution contained (in mM): 80 monosodium glutamate, 55 NaCl, 6 KCl, 10 glucose, 10 HEPES,2 MgCl2, and the pH was adjusted to 7.3 with NaOH. […] Extracellular and patch-pipette solutions for single BK channel recordings contained (in mM): 140 KCl, 1.08 MgCl2, 5 EGTA, 10 HEPES, and 3.16 CaCl2, adjusted to pH 7.2 with NaOH (Ca^2+ free concentration was calculated ˜300 nM with WEBMAXC Standard, http://www.stanford.edu/˜cpatton/webmaxcS.htm, Chris Patton). […]
smiles,measurement,setting,value
CC(C)(O)[C@H]1O[C@H]2CC[C@@]3(C)[C@@](O)(CC[C@H]4Cc5c([nH]c6ccccc56)[C@@]43C)C2=CC1=O [paxilline],BK current amplitude,"[1]; at +80 mV, 1 μM paxilline alone, n=6, N=6",6.1±1.7 pA/pF
same,"effects of 17β-estradiol on whole cell outward K+ currents, under paxilline","[1]; paxilline 1 μM, 17β-estradiol 100 nM",completely abolished
same,effect on single BK channel activity (NPo),[2],completely abolished

# Source: patent US20170348322A1, “BK Channels as Non-Genomic Estrogen Targets for Overactive Bladder” (priority 2016, published 2017)
